Earlier results on 1 compound are cited in patent US8691198B2, “Environmentally benign plasticizers based on derivatives of acetone” (priority 2010, dated 2014).

The subject of this series is rat. The note with it: left half of Table 1.

Consider `CC(C)CC(=O)O` [Isovaleric acid], for which the “LD50(rat)” value is on record as 3200 mg/kg.
